According to publication PMC3797749, “Functional Characterisation of the Maturation of the Blood-Brain Barrier in Larval Zebrafish” (PLoS ONE, 2013):

Tested on: zebrafish larvae
Conditions: 10 d.p.f.
Method: Initial drug exposure assays were performed in larval zebrafish to identify a sufficiently high concentration of drug that could be detected by liquid chromatography/tandem mass spectrometry (LC/MS/MS) analysis without causing toxicity. Maximum tolerated concentration (MTC) was determined using n=6 larvae per group. […] Compounds of interest were prepared as 2 mg/ml stocks in dimethyl sulfoxide (DMSO). […] Larvae were incubated in the drug for 1 hour at room temperature then anaesthetised on ice. For whole uptake analysis, anaesthetised larvae were transferred to 1.5 ml microfuge tubes and all excess liquid was removed. 100 µl ice cold PBS was added, samples were briefly centrifuged and all excess liquid was removed. For brain versus body uptake analysis, larvae were anaesthetised by chilling prior to decapitation using fine iridectomy scissors and No. 5 watchmaker forceps. Head and body tissue samples were collected in separate microfuge tubes on ice and excess liquid removed. 100 µl ice cold PBS was added and samples were briefly centrifuged and all excess liquid removed. The weight of the tissue sample was measured and the samples were frozen at -20 °C prior to extraction for LC/MS/MS.
Test compound was added to the well containing 50 µg/ml verapamil and larvae were incubated for a further hour at room temperature prior to tissue collection as described. […]

CN1[C@@H]2C[C@@H](OC(=O)[C@H](CO)c3ccccc3)C[C@H]1[C@@H]1O[C@@H]12 [Scopolamine]
distribution in head and trunk samples: equal concentrations in head and trunk samples
